Results deposited as PubChem BioAssay AID1159584 (Peter MacCallum Cancer Centre, 2016)

Screen: 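Genes whose loss is lethal only together with E-cadherin loss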 (primary screen)
System: human MCF10A breast epithelial cells, parental and CDH1-null
Knock-down reagent: siRNA against human genes
Detection: 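Cell viability by CellTiter-Glo ATP luminescence, each line scaled to the mean of mock wells across plates, then CDH1-null over parental ratio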
Direction: CDH1-null / parental viability ratio: higher = CDH1-null cells survive relatively better than parental; CDH1-null viability vs mock: higher = more viable CDH1-null cells; parental viability vs mock: higher = more viable parental cells
The deposit covers about 18,000 reagents; this is an unselected part. The record does not give: the amount of reagent, the time to read-out.

gene symbol,CDH1-null / parental viability ratio,CDH1-null viability vs mock (fraction of mock),parental viability vs mock (fraction of mock)
ETAA1 (ETAA1 activator of ATR kinase),0.88,0.77,0.88
GLS2 (glutaminase 2),1.27,0.84,0.66
PTPRC (protein tyrosine phosphatase receptor type C),1.33,0.92,0.69
TPPP3 (tubulin polymerization promoting protein family member 3),0.84,0.46,0.55
AQP9 (aquaporin 9),1.07,0.98,0.92
ALG1 (ALG1 chitobiosyldiphosphodolichol beta-mannosyltransferase),0.91,0.69,0.76
MAP3K19 (mitogen-activated protein kinase kinase kinase 19),1.05,0.78,0.74
CXCR2 (C-X-C motif chemokine receptor 2),0.89,0.8,0.9
OTOR (otoraplin),0.91,0.68,0.75
PHTF2 (putative homeodomain transcription factor 2),0.97,0.9,0.93
CDC73 (cell division cycle 73),1.1,0.97,0.88
PRAMEF7 (PRAME family member 7),0.72,0.62,0.86
RNF32 (ring finger protein 32),1,0.98,0.98
TXLNA (taxilin alpha),0.93,0.64,0.69
"TOB1 (transducer of ERBB2, 1)",1.08,1,0.93
TRAPPC8 (trafficking protein particle complex subunit 8),0.84,0.74,0.88
OR1A2 (olfactory receptor family 1 subfamily A member 2),0.92,0.7,0.76
FOXF2 (forkhead box F2),0.99,0.91,0.92
LINC02694 (long independently transcribed non-coding RNA 2694),1.05,0.84,0.8
SLC25A11,1.14,0.9,0.79
COX18 (cytochrome c oxidase assembly factor COX18),0.91,0.75,0.82
KRT17 (keratin 17),1.32,0.29,0.22
MITD1 (microtubule interacting and trafficking domain containing 1),0.93,0.86,0.92
MATN2 (matrilin 2),0.71,0.29,0.41
VIPAS39,1.19,1.12,0.94
ZNF749 (zinc finger protein 749),0.91,0.96,1.05
DDIT4L (DNA damage inducible transcript 4 like),1,0.7,0.7
"RBBP7 (RB binding protein 7, chromatin remodeling factor)",1.28,0.95,0.74

Not a retest: an excerpt of the list.
gene symbol,CDH1-null / parental viability ratio,CDH1-null viability vs mock (fraction of mock),parental viability vs mock (fraction of mock)
DDIT4L (DNA damage inducible transcript 4 like),1,0.7,0.7
"RBBP7 (RB binding protein 7, chromatin remodeling factor)",1.28,0.95,0.74
